From the supplement of paper PMC6414424
± gives the standard deviation of the averaged measurements. The list shows a part of the results.

Tested on: APPdp1-6 iPSC-derived neurons
Test: pThr231Tau/total Tau ratio Z-score vs DMSO vehicle wells; higher = more pThr231Tau relative to total Tau
Settings: 5 µM; treatment time 5 days

SMILES | pThr231Tau/total Tau ratio Z-score
CC(=O)[C@H]1CC[C@H]2[C@@H]3CCC4=CC(=O)CC[C@]4(C)[C@H]3CC[C@]12C [Prestw-477] | -0.309 ± 0.45
CN(C)CC/C=C1/c2ccccc2Sc2ccc(Cl)cc21 [Prestw-348] | -0.708 ± 0.6
CC(C)NC[C@@H](O)c1ccc(O)c(O)c1 [Prestw-911] | 0.947 ± 0.28
CN(C)CCOC(c1ccccc1)c1ccccc1 [Prestw-65] | 0.905 ± 0.2
COc1ccc2[nH]c([S+]([O-])Cc3ncc(C)c(OC)c3C)nc2n1 (stereo unspecified) [Prestw-1351] | -1.68 ± 0.72
CC(=O)Oc1c(C)c(C)c2c(c1C)CC[C@@](C)(CCC[C@H](C)CCC[C@H](C)CCCC(C)C)O2 | -0.276 ± 0.5
C[C@]12CC[C@@H]3c4ccc(O)cc4CC[C@H]3[C@@H]1CC[C@@H]2O [Prestw-441] | 0.607 ± 0.17
CCN(CC)C(=O)c1cccc(C)c1 | -1.06 ± 0.74
CCCN(CCC)S(=O)(=O)c1ccc(C(=O)O)cc1 [Prestw-542] | 0.307 ± 0.75
Clc1ccc(CSC(Cn2ccnc2)c2ccc(Cl)cc2Cl)cc1 (stereo unspecified) [Prestw-810] | -1.44 ± 2
C[n+]1cc2c3c(ccc2c2ccc4cc5c(cc4c21)OCO5)OCO3 | -1.65 ± 0.28
CN(C)CCN(Cc1ccccc1)c1ccccn1 [Prestw-1199] | -0.0854 ± 1.1
Nc1ccn([C@@H]2O[C@H](CO)[C@@H](O)C2(F)F)c(=O)n1 [Prestw-1266] | 0.609 ± 0.095
CN1C(=O)CC(c2ccccc2)C1=O (stereo unspecified) [Prestw-1061] | 6.19 ± 9.2
CC(=O)O[C@@]12CO[C@@H]1C[C@H](O)[C@@]1(C)C(=O)[C@H](O)C3=C(C)[C@@H](OC(=O)[C@H](O)[C@@H](NC(=O)OC(C)(C)C)c4ccccc4)C[C@@](O)([C@@H](OC(=O)c4ccccc4)[C@H]21)C3(C)C [Prestw-1180] | -3.43 ± 0.45
N[C@@H](Cc1cc(I)c(Oc2cc(I)c(O)c(I)c2)c(I)c1)C(=O)O [Prestw-403] | -0.421 ± 0.8
N=C(N)NC(=O)Cc1c(Cl)cccc1Cl [Prestw-339] | 0.0308 ± 1.4
Clc1ccc(Cn2c(CN3CCCC3)nc3ccccc32)cc1 [Prestw-227] | -1.1 ± 1.3
COc1cc2nc(N(C)CCCNC(=O)C3CCCO3)nc(N)c2cc1OC (stereo unspecified) [Prestw-322] | -0.554 ± 0.15
CCCCCCCCCCCCCCCC(=O)OC[C@@H](NC(=O)C(Cl)Cl)[C@H](O)c1ccc([N+](=O)[O-])cc1 [CHLORAMPHENICOL PALMITATE, antibacterial, antirickettsial] | 2.21 ± 1.7
CC(C)N=c1cc2n(-c3ccc(Cl)cc3)c3ccccc3nc-2cc1Nc1ccc(Cl)cc1 [Prestw-376] | -3.16 ± 1.1
O=C(O)COCCN1CCN(C(c2ccccc2)c2ccc(Cl)cc2)CC1 (stereo unspecified) [Prestw-503] | -0.79 ± 2.1
CCCCC(CC)CCC(CC(C)C)OS(=O)(=O)O (stereo unspecified) | -0.263 ± 0.45
COc1ccc2cc([C@H](C)CO)ccc2c1 | 0.0099 ± 0.15
Clc1ccc(CO/N=C(\Cn2ccnc2)c2ccc(Cl)cc2Cl)c(Cl)c1 [Prestw-1125] | -0.0338 ± 0.65
CC(=O)O[C@]1(C(C)=O)CC[C@H]2[C@@H]3C=C(Cl)C4=CC(=O)[C@@H]5C[C@@H]5[C@]4(C)[C@H]3CC[C@@]21C [Prestw-1074] | -0.733 ± 0.23

4 entries drawn at random from those above:
SMILES | pThr231Tau/total Tau ratio Z-score
N=C(N)NC(=O)Cc1c(Cl)cccc1Cl [Prestw-339] | 0.0308 ± 1.4
N[C@@H](Cc1cc(I)c(Oc2cc(I)c(O)c(I)c2)c(I)c1)C(=O)O [Prestw-403] | -0.421 ± 0.8
O=C(O)COCCN1CCN(C(c2ccccc2)c2ccc(Cl)cc2)CC1 (stereo unspecified) [Prestw-503] | -0.79 ± 2.1
C[C@]12CC[C@@H]3c4ccc(O)cc4CC[C@H]3[C@@H]1CC[C@@H]2O [Prestw-441] | 0.607 ± 0.17

(list continues)

SMILES | pThr231Tau/total Tau ratio Z-score
COc1cc2c3cc1Oc1cc(ccc1O)C[C@@H]1c4c(cc(OC)c(O)c4Oc4ccc(cc4)C[C@@H]3N(C)CC2)CC[N+]1(C)C | 1.48 ± 2.3
CC1(C)[C@H](C(=O)O)N2C(=O)C[C@H]2S1(=O)=O [Prestw-1345] | -0.992 ± 0.66
Cc1ncc(CO)c(CO)c1O [Prestw-623] | 1.16 ± 0.28
CCc1c(C)[nH]c2c1C(=O)C(CN1CCOCC1)CC2 (stereo unspecified) [Prestw-1035] | 1.46 ± 0.05
CCO/C([O-])=N/c1c[n+](N2CCOCC2)no1 | 0.339 ± 0.33
CCC1(c2ccccc2)NC(=O)N(C)C1=O (stereo unspecified) [Prestw-1108] | -0.218 ± 0.67
CC1=C(C(=O)O)N2C(=O)[C@@H](NC(=O)[C@H](N)C3=CCC=CC3)[C@H]2SC1 [CEPHRADINE, antibacterial] | 1.02 ± 0.4
N[C@@H](CCC(=O)N[C@@H](CS)C(=O)NCC(=O)O)C(=O)O [Glutathione] | 0.775 ± 0.56
COc1cc(C(=O)NCCCCCC(=O)O)cc(OC)c1OC [CAPOBENIC ACID, antiarrhythmic] | 1.86 ± 2.9
CC1=C(/C=C/C(C)=C/C=C/C(C)=C/C(=O)O)C(C)(C)CCC1 [Prestw-257] | -0.137 ± 1.3
CC(=O)Oc1ccccc1C(=O)O [Prestw-1207] | 0.0259 ± 0.16
O=c1cc(-c2ccccc2)oc2cc(O)ccc12 | 1.08 ± 0.3
CC(=O)Nc1ccccc1 [ACETANILIDE    Therap cat: analgesic, antipyretic] | -0.108 ± 0.47
O=C1OC2(c3ccccc31)c1cc(I)c(O)c(I)c1Oc1c2cc(I)c(O)c1I [ERYTHROSINE SODIUM, color additive] | 0.903 ± 0.6
CC(C(=O)O)c1ccc2c(c1)Cc1cccnc1O2 (stereo unspecified) [Prestw-1318] | -0.664 ± 0.32
CSc1ccc2c(c1)C(N1CCN(C)CC1)Cc1ccccc1S2 (stereo unspecified) [Prestw-375] | -1.52 ± 1.6
Cc1c(C)c2c(c(C)c1O)CCC(C)(COc1ccc(CC3SC(=O)NC3=O)cc1)O2 (stereo unspecified) [Prestw-1467] | 0.642 ± 0.53
C=Cc1c(C)c2cc3[nH]c(cc4nc(cc5nc(cc1[nH]2)C(C)=C5CCC(=O)O)C(CCC(=O)O)=C4C)c(C)c3C=C [Protoporphyrin IX] | -0.0835 ± 0.19
CC1(C)[C@@H]2CC[C@@]1(C)C(=O)C2 [CAMPHOR (1R), analgesic, antiinfective, antipruritic] | -0.915 ± 1.1
COC(c1ccccc1)(c1ccccc1)[C@H](Oc1nc(C)cc(C)n1)C(=O)O [Prestw-1497] | -0.221 ± 0.053
COc1ccc([C@@H]2CC(=O)c3c(O)cc(O[C@@H]4O[C@H](CO[C@@H]5O[C@@H](C)[C@H](O)[C@@H](O)[C@H]5O)[C@@H](O)[C@H](O)[C@H]4O)cc3O2)cc1O [Prestw-400] | 0.7 ± 1.3
CC(C)(C(=O)O)c1ccc(C(O)CCCN2CCC(C(O)(c3ccccc3)c3ccccc3)CC2)cc1 (stereo unspecified) [Prestw-1102] | 0.0801 ± 1.5
NS(=O)(=O)c1cc(C(=O)O)cc(N2CCCC2)c1Oc1ccccc1 [Prestw-1047] | 0.882 ± 0.74
CN(C)CCCN1c2ccccc2Sc2ccccc21 [Prestw-693] | -0.528 ± 0.12
O=C(O)c1cccnc1Nc1cccc(C(F)(F)F)c1 [Prestw-255] | -0.133 ± 0.8
